Results are given in words; binding and its absence hold for the method and conditions named. Some entries that bind do so weakly or less than the wild type.

Protein sequences, listed by entry. Tags and fused reporters are not part of them. Residues count along the entry.
UniProt Q969D9, residues 29-159: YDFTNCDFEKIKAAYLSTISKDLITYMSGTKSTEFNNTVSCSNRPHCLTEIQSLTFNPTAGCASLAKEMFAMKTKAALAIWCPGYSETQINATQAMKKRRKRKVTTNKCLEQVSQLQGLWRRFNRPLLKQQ

The results in this text go back to patent US20250042987A1.

First the molecules themselves.
B1: murine anti-TSLP monoclonal antibody MA-II (mouse IgG1 / mouse Ck) (antibody, V domains shown)
VH: QVKLQQSGAELVKPGASVKMSCKASGYTFTTYWMHWVKQRPGQGLEWIGVIDPSDSYITYNQKFKGKATLTVDTSSSTAYMQLSSLTSEDSAVYYCTRSLDGYFDYWGQGTLVTVSA
VL: DIVLTQSPASLSASVGETVTITCRASENIYSYLAWYQQKQGKSPQLLVYNAKTLAEGVPSRFSGSGSGTQFSLKINSLQPEDFGSYYCQHHYGTPWTFGGGTKLEIKA
B2: murine anti-TSLP monoclonal antibody MA-IV (mouse IgG1 / mouse Ck) (antibody, V domains shown)
VH: QVKLEQSGAELVKPGASVKMSCKASGYTFTSYWMHWVKQRPGQGLEWIGVIDPSDSDTTYNQKFKGKATLTVDTSSSTAYMQLSSLTSEDSAVYYCTRSLDGYFDHWGQGTLVTVSA
VL: DIVITQTPASLSASVGETVTITCRASGNIHNYLAWYQQKQGKSPQLLVYNTKTLADGVPSRFSGSGSGTQYSLKINSLQPEDFGSYYCQHFWSTPYTFGGGTKLEIKA
B3: murine anti-TSLP monoclonal antibody MA-III (mouse IgG1 / mouse Ck) (antibody, V domains shown)
VH: QVQLQQPGAELVKPGASVKMSCKASGYTFTSYWMHWVKQRPGQGLEWIGVIDPSDSDTTYNQKFKGKATLTVDTSSSTVYMQLSSLTSEDSAVYYCTRSLDGYFDHWGQGTLVTVSA
VL: DIVMTQSPASLSASVGETVTITCRASGNIHNYLAWYQQKQGKSPQLLVYNAKTLADGVPSRFSGSGSGTQYSLKINSLQPEDFGSYYCQHFWSTPWTFGGGTKLEIKA

In this test the target is human TSLP (thymic stromal lymphopoietin), made in-house (human) (UniProt Q969D9). As to the kind of experiment: ELISA, TSLP coated.
Take B1: the binding entry is “binds”.

On to B2, for which the binding entry is recorded as “binds”. The result for B3 reads “binds”.
